# Measured values taken from paper PMC5717350, “The human CTF4-orthologue AND-1 interacts with DNA polymerase α/primase via its unique C-terminal HMG box” (Open Biology, 2017).
# For some of these results: Negatives hold for the conditions tested. For some of these results: At least one verdict rests on a figure or table, not on a statement of the authors. Where a protein sequence is shown, tags need not be part of it. For some of these results: The exact form of at least one protein or probe is not confirmed. For some of these results: The comparison behind a weaker result is the experiment's own reference, which may not be listed here.
# Assays:
# AND-1 SepB+CT (human) = target: T1, AND-1 SepB+CT (human) (UniProt O75717); experiment: EMSA; settings: 2:1 protein:DNA; EMSA: 25 mM HEPES pH 7.2, 100 mM KCl, 5 mM MgCl2, TCEP, 3 uM DNA, 4 C; recombinant protein; residues 316-1129; label: 5' 6FAM; single-stranded DNA
# T1 sequence (looked up): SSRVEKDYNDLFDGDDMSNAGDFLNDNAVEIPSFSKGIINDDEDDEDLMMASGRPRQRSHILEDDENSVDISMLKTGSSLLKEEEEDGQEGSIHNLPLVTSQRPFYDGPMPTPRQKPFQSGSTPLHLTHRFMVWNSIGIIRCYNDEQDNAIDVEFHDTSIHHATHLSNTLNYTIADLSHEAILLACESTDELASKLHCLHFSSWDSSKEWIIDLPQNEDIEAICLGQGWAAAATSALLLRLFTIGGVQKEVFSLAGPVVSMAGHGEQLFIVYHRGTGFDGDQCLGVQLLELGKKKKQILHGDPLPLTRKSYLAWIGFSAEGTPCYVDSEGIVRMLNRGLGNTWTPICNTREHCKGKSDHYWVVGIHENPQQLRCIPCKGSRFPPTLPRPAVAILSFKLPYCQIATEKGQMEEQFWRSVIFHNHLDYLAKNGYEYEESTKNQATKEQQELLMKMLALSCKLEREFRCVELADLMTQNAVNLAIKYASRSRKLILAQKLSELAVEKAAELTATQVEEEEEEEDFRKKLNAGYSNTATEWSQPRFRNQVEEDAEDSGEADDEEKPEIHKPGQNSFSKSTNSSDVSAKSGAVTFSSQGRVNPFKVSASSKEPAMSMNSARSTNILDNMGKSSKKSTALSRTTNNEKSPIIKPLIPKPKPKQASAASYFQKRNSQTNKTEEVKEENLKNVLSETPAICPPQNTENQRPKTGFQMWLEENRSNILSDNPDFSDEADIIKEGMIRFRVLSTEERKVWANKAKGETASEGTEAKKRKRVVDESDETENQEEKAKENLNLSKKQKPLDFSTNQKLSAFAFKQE
# MBP-AND-1CT (human) = target: T2, MBP-AND-1CT (human) (UniProt O75717); experiment: EMSA; settings: 5 mM MgCl2; EMSA: 25 mM HEPES pH 7.2, 100 mM KCl, 5 mM MgCl2, TCEP, 3 uM DNA, 4 C; recombinant protein; residues 837-1129; protein details: His6-MBP; label: 5' 6FAM; single-stranded DNA
# T2 sequence (looked up): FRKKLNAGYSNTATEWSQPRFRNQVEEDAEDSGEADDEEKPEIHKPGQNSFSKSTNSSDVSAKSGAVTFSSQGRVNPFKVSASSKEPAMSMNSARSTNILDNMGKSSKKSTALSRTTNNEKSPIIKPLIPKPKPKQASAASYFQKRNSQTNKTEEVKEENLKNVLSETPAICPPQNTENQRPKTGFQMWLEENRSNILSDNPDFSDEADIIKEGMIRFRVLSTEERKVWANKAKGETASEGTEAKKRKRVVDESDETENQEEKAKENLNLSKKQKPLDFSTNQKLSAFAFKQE
# [1] = target: T3, MBP-AND-1 1017-1129 (human) (UniProt O75717); experiment: EMSA; settings: protein excess, text: HMG box not involved in DNA binding; EMSA: 25 mM HEPES pH 7.2, 100 mM KCl, 5 mM MgCl2, TCEP, 3 uM DNA, 4 C; recombinant protein; residues 1017-1129; protein details: His6-MBP; label: 5' 6FAM; single-stranded DNA
# T3 sequence (looked up): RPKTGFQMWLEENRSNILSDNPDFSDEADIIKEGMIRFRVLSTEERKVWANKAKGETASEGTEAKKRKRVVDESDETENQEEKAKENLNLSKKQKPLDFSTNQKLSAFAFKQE
# [2] = target: T4, MBP-AND-1 HMG box (human) (UniProt O75717); experiment: EMSA; settings: protein excess, text: HMG box not involved in DNA binding; EMSA: 25 mM HEPES pH 7.2, 100 mM KCl, 5 mM MgCl2, TCEP, 3 uM DNA, 4 C; recombinant protein; residues 1017-1076; protein details: His6-MBP; label: 5' 6FAM; single-stranded DNA
# T4 sequence (looked up): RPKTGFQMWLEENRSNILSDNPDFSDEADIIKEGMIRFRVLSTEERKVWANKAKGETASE
# [3] = target: T5, AND-1 full length (human) (UniProt O75717); experiment: EMSA; settings: 5 mM MgCl2, stable complex, lower apparent affinity than ssDNA and fDNA; EMSA: 25 mM HEPES pH 7.2, 100 mM KCl, 5 mM MgCl2, TCEP, 3 uM DNA, 4 C; recombinant protein; residues 1-1129; protein details: His10-myc; label: 5' 6FAM on strand 1
# T5 sequence (looked up): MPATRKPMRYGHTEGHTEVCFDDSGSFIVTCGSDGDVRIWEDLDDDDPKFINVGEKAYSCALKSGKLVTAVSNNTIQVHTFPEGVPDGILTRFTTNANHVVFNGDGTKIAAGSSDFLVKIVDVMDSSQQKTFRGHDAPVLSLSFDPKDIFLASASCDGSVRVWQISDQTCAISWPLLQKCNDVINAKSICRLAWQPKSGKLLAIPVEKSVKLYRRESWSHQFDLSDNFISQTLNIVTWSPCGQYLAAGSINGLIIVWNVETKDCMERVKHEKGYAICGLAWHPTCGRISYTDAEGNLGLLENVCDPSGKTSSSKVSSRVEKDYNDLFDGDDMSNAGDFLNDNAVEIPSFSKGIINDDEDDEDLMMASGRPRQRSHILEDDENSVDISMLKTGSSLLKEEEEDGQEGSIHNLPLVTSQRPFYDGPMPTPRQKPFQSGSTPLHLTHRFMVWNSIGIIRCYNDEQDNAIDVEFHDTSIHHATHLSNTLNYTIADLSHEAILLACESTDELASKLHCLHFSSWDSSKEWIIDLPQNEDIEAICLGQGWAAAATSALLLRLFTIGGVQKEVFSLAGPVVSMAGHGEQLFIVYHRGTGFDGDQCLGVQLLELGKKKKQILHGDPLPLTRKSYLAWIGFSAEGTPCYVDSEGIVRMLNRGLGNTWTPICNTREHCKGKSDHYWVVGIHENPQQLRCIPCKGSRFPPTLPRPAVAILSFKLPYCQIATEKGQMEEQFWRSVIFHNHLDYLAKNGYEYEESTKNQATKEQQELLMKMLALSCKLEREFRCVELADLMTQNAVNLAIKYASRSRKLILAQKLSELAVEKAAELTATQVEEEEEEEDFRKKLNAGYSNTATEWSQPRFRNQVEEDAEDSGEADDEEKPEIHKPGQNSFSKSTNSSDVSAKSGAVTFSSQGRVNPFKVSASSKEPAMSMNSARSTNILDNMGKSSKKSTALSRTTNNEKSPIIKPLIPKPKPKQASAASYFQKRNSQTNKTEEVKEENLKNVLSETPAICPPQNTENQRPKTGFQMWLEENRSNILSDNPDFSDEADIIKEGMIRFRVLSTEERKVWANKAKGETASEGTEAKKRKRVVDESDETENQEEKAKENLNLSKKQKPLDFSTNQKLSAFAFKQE
# [4] = target: T5, AND-1 full length (human); experiment: fluorescence anisotropy; settings: value printed only in figure panel; FP: 25 mM HEPES pH 7.2, 100 mM KCl, 0.5 mM TCEP, 20 nM DNA, 25 C; recombinant protein; residues 1-1129; protein details: His10-myc; label: 5' 6FAM on strand 1
sequence,measurement,setting,value
CTTCCGAGACCTTGCCCATCCCGTAGAACCTGTTATCCAA [ssDNA 40mer (oligo A)],binding result,AND-1 SepB+CT (human),binds
same,binding result,MBP-AND-1CT (human),binds
ATGGTGTGTGTAGGTTAATGTGAGGAGGAGAGGTGAAGAAGGAGGAGAGAAGAAGGAGGC [ssDNA 60mer],binding result,[1],no binding
same,binding result,[2],no binding
CTTCCGAGACCTTGCCCATCCCGTAGAACCTGTTATCCAA (double strand) [dsDNA (oligos A+B)],binding result,[3],binds more weakly
same,binding result,[4],binds
CTTCCGAGACCTTGCCCATCCCGTAGAACCTGTTATCCAA / GCTACCTTTGAACCTACGATGATGGGCAAGGTCTCGGAAG [fDNA (oligos A+C)],binding result,[4],binds
